# According to PubChem BioAssay AID1688 (National Center for Advancing Translational Sciences (NCATS), 2009):
# About 2,400 (1.1%) of roughly 220,000 compounds were called active. Inconclusive results, whose numbers are uncertain, are shown with a selection of clear calls. The call rests on the fitted dose curve; in most records, active means well fitted inhibition curve with a large enough effect; inconclusive means small, poorly fitted or top-dose-only effect, or effect the other way; inactive means no such curve, though single readings can be large or run the other way. A potency beside an inconclusive call is a rough fit, not a confirmed value.
# Assay: qHTS Multiplex Assay to Identify Dual Action Probes in a Cell Model of Huntington: Aggregate Formation (GFP); further: nearly all actives have a fitted effect of over 60% in size
# Details: PC12 HttQ103-GFP aggregates, Acumen cytometry, 40 h; activity change, negative = inhibition: at 46.1 µM (top of the series) unless noted
# Method in brief: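 Aggregates are detected as GFP objects 1–25 µm with signal 6 STDEV over background in lysates of induced PC12 cells. These carry Huntingtin exon 1 with 103 glutamines fused to GFP under an ecdysone promoter; compounds titrated.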
# On the % scale 0 is the no-effect control and ±100 the full control effect; potency means the concentration at half of the fitted maximal effect.
Compound,Potency,"activity change, negative = inhibition"
O=C(Nc1ccc(F)cc1)N(CCCN1CCOCC1)Cc1cc2cc3c(cc2[nH]c1=O)OCO3,inactive,–
O=C(NCCc1ccccc1)C1CCN(S(=O)(=O)c2cccs2)CC1,inactive,–
O=S(=O)(c1ccccc1)c1ncc(C(F)(F)F)cc1Cl,"inconclusive: 35.5 µM [inhibitor, single point]",–
Cc1oc2ccc(OCc3ccc(F)cc3)cc2c1C(=O)O,"inconclusive: 12.6 µM [activator, single point]",–
COc1ccc(N2CCN(c3nc(NCCc4ccc(OC)c(OC)c4)nc(OC)n3)CC2)cc1,"inconclusive: 35.5 µM [inhibitor, single point]",–
COc1ccc(N(C(=O)c2ccco2)S(=O)(=O)c2cc(Cl)c(Cl)cc2Cl)cc1,"inconclusive: 20 µM [inhibitor, single point]",–
COc1ccc(OC)c(CNc2ccc([N+](=O)[O-])cc2C)c1,"inconclusive: 22.4 µM [inhibitor, single point]",–
COc1ccc(N(CC(O)Cn2c3ccccc3c3ccccc32)S(=O)(=O)c2ccccc2)cc1 (stereo not given),"inconclusive: 25.1 µM [inhibitor, single point]",–
N#CCSc1nc(Nc2ccc3c(c2)OCO3)c2ccccc2n1,active: 25.1 µM,–
Cc1ccc(CNC(=O)CCS(=O)(=O)c2cccc3nonc23)cc1,inactive,–
Cc1nc(N2CCN(Cc3ccccc3)CC2)nc2c1C(=O)CCC2,"inconclusive: 35.5 µM [inhibitor, single point]",–
CCOc1ccccc1N(CC(=O)N1CCCCCC1)S(C)(=O)=O,inactive,–
Cc1c(C(=O)OCC(C)C)[nH]c2c1C(=O)CC(c1ccco1)C2 (stereo not given),"inconclusive: 3.55 µM [inhibitor, partial curve]",–
CCOc1cccc(/C=N/NC(=S)Nc2ccccc2[N+](=O)[O-])c1O,inactive,–
CCOc1cc(/C=N\NC(=O)c2ccc(NC(=O)C(C)(C)C)cc2)ccc1OC(=O)c1cccc(C)c1,inactive,–
Cc1nnc(SC(C)C(=O)Nc2ccc(S(=O)(=O)NC3CCCCC3)cc2)s1 (stereo not given),"inconclusive: 8.91 µM [inhibitor, partial curve, poor fit]",–
O=c1c2cn[nH]c2nc(SCc2cc(=O)n3cc(Br)ccc3n2)n1-c1ccc(Br)cc1,inactive,–
Cc1ccc(C)c(NC(=O)Cn2nc(C)c3ccccc3c2=O)c1,"inconclusive: 5.62 µM [activator, partial curve, poor fit]",–
O=C(NCCc1ccccc1)c1ccccc1NS(=O)(=O)N1CCCC1,"inconclusive: 1 µM [inhibitor, full curve]",–
C/C(=N\NC(=O)COc1ccccc1)c1ccc(O)cc1,–,inactive: -6.94% [at 9.22 µM]
Cc1ccc(NC(=O)Cn2cnc3cc([N+](=O)[O-])ccc3c2=O)cc1,–,inactive: 3.01% [at 9.22 µM]
CCN(C(=O)CSc1nc2cc(C(=O)OC)ccc2c(=O)n1Cc1ccco1)c1cccc(C)c1,"inconclusive: 35.5 µM [inhibitor, single point]",–
CC1=NC(C)(C)Cc2cc(C)c(C)cc21,–,inactive: 3.89% [at 9.22 µM]
Cc1ccc(-c2csc(NC(=O)c3ccc(-c4ccccc4)cc3)n2)o1,"inconclusive: 17.8 µM [inhibitor, single point]",–

Compound,Potency,"activity change, negative = inhibition"
Cc1nc2c(Br)cc(Br)cc2cc1O,active: 11.2 µM,–
CCCNC(=O)C1CCN(c2ccc(S(=O)(=O)N3CCOCC3)cc2Cl)CC1,inactive,–
O=C(Nc1ccccc1NC(=O)NC1CCCCC1)NC1CCCCC1,"inconclusive: 35.5 µM [inhibitor, single point]",–
C=CCn1c(O)c(N=NC(=S)Nc2ccccc2C)c2cc(S(=O)(=O)N3CCOCC3)ccc21,inactive,–
CCc1ccc(NC(=O)C(=O)NCCN2CCN(Cc3ccc([N+](=O)[O-])cc3)CC2)cc1,"inconclusive: 0.562 µM [activator, partial curve, poor fit]",–
Cc1cccc(C2=N/C(=C\c3cccs3)C(=O)O2)c1,inactive,–
CCC(CC)C(=O)Nc1ccc(Sc2ccc([N+](=O)[O-])cc2)cc1,inactive,–
COc1ccc(NS(=O)(=O)c2cccc(C(=O)NNC(=O)c3cc(C)oc3C)c2)cc1,inactive,–
COc1cccc(-c2nc(Cc3ccc(OC)c(OC)c3)no2)c1,"inconclusive: 17.8 µM [inhibitor, single point]",–
COc1cccc(C(=O)Nc2cccc(OCC(=O)O)c2)c1,"inconclusive: 1 µM [activator, partial curve]",–
CC1CCCN(C(=O)c2cccc(S(=O)(=O)Nc3cc(C(F)(F)F)ccc3Cl)c2)C1 (stereo not given),"inconclusive: 35.5 µM [inhibitor, single point]",–
N#Cc1c2c(c(Nc3ccc(O)cc3)n3c1nc1ccccc13)CCC2,"inconclusive: 35.5 µM [activator, single point]",–
Cc1ccccc1NC(=O)CCC(=O)N/N=C/c1cc([N+](=O)[O-])ccc1O,active: 12.6 µM,–
CN(C)c1ccc(/C=N/NC(=O)CNC(=O)c2ccc3c(c2)OCCO3)cc1,inactive,–
Cc1nc2sc(C(c3ccc(F)cc3)N3CCOCC3)c(O)n2n1 (stereo not given),"inconclusive: 1.26 µM [inhibitor, single point]",–
CC(C)(C)N(NC(=O)Nc1ccccc1)C(=O)c1ccccc1Cl,"inconclusive: 25.1 µM [activator, single point]",–
CN(CC/C=C1/c2ccccc2CSc2ccccc21)CCCO,"inconclusive: 12.6 µM [inhibitor, partial curve]",–
O=[N+]([O-])c1ccc2c(c1)C(N1CCOCC1)/C(=C/COc1ccc(F)cc1)O2 (stereo not given),"inconclusive: 14.1 µM [inhibitor, single point]",–
CC(C)(C)C(=O)NC(NC(=S)Nc1sc2c(c1C#N)CCCC2)C(Cl)(Cl)Cl (stereo not given),"inconclusive: 15.8 µM [inhibitor, single point]",–
COc1ccc(N2CCN(C(=O)C3CC(O)CN3S(=O)(=O)c3ccc([N+](=O)[O-])cc3)CC2)cc1 (stereo not given),inactive,–
CNc1ccc(Br)cc(C(=O)/C=C/c2ccc(OC)cc2)c1=O,"inconclusive: 35.5 µM [activator, single point]",–
COc1ccc(NS(=O)(=O)c2ccc(Oc3ncccn3)cc2)cc1,active: 11.2 µM,–
COc1ccc(C/C(C)=N/NC(=S)Nc2ccc(C)c(C)c2)cc1,"inconclusive: 5.62 µM [inhibitor, single point]",–
COc1ccc(-c2nn(-c3ccccc3)cc2/C=C/C(=O)N2CCN(c3ccccn3)CC2)cc1,"inconclusive: 22.4 µM [inhibitor, partial curve, poor fit]",–

# Four entries from above, as tab-separated lines.
Compound	Potency	activity change, negative = inhibition
CCN(C(=O)CSc1nc2cc(C(=O)OC)ccc2c(=O)n1Cc1ccco1)c1cccc(C)c1	inconclusive: 35.5 µM [inhibitor, single point]	–
CC1=NC(C)(C)Cc2cc(C)c(C)cc21	–	inactive: 3.89% [at 9.22 µM]
Cc1ccc(-c2csc(NC(=O)c3ccc(-c4ccccc4)cc3)n2)o1	inconclusive: 17.8 µM [inhibitor, single point]	–
Cc1nc2c(Br)cc(Br)cc2cc1O	active: 11.2 µM	–

# Following part.

Compound,Potency,"activity change, negative = inhibition"
COc1cccc(N=Nc2c(N)[nH]n3c(=O)cc(-c4ccccc4)nc23)c1,active: 10 µM,–
CCCCN1C(=O)C(O)=C(C(C)=O)C1c1ccc(OC)cc1OC (stereo not given),"inconclusive: 35.5 µM [inhibitor, single point]",–
CN1CCN(CCC(=O)N/N=C/c2ccccc2F)CC1,–,inactive: -8.11% [at 9.22 µM]
O=C(NC(O)C(=O)c1cccs1)c1cccnc1 (stereo not given),inactive,–
CC(=O)Nc1sc(N)nc1-c1ccccc1,inactive,–
Cc1c(C(=O)NCCc2ccccc2)oc2ccc(S(=O)(=O)N3CCOCC3)cc12,"inconclusive: 11.2 µM [inhibitor, single point]",–
COc1cc2nc(Cl)nc(NCCO)c2cc1OC,"inconclusive: 5.62 µM [activator, single point]",–
CC(c1nccs1)N(C)C(=O)CCc1nnc(-c2ccc(-c3ccccc3)cc2)o1 (stereo not given),"inconclusive: 35.5 µM [inhibitor, single point]",–
C=CCN(c1ccc(F)cc1)S(=O)(=O)c1cc(C(=O)OCC(=O)N(C)C2CCS(=O)(=O)C2)ccc1Cl (stereo not given),–,inactive: -31.4% [at 9.22 µM]
COC(=O)c1cn(C(=O)/C=C/c2ccc(OC)c(OC)c2)c2ccccc12,"inconclusive: 7.94 µM [activator, partial curve]",–
CN(C)/C=C/c1c([N+](=O)[O-])c2ccc(O)cc2n1-c1ccccc1,–,inactive: -32.5% [at 9.22 µM]
COc1ccc(N(C(=O)Nc2ccc(Cl)cc2)C2=NCCC2)cc1,"inconclusive: 2.24 µM [inhibitor, partial curve]",–
Cc1ccc(NC(=O)c2cc(S(=O)(=O)N3CCCCC3)cs2)cc1,"inconclusive: 22.4 µM [inhibitor, single point]",–
Cc1ccc(-c2cc(C(=O)NCCCN3CCOCC3)no2)cc1,active: 3.16 µM,–
O=c1c(Cl)c(NCCCO)cnn1-c1nc2ccccc2[nH]1,"inconclusive: 12.6 µM [inhibitor, single point]",–
S=c1[nH]nc(Cn2cnc3ccccc32)n1-c1ccccc1,"inconclusive: 0.794 µM [inhibitor, partial curve]",–
CCOC(=O)c1sc(NS(=O)(=O)c2ccccc2)nc1C,inactive,–
CCN(C(=O)COC(=O)/C=C/c1ccc(S(=O)(=O)N2CCc3ccccc32)cc1)C1CCS(=O)(=O)C1 (stereo not given),"inconclusive: 1.12 µM [activator, single point]",–
C/C(=N/NC(=O)c1cc2ccccc2cc1O)C1C(=O)c2ccccc2C1=O,inactive,–
C=C(C)COc1ccc(-c2n[nH]c(C)c2-c2ccccc2OC)c(O)c1,"inconclusive: 22.4 µM [inhibitor, single point]",–
O=C(NNc1nc(N2CCOCC2)nc(N2CCOCC2)n1)Nc1ccc(Cl)cc1,"inconclusive: 0.562 µM [activator, full curve, poor fit]",–
NCCCNC(=O)c1ccc(/C=N/O)nc1,–,inactive: 4.43% [at 9.22 µM]
